Source: patent US20160222434A1
No constants are given. Whether binding was seen depends on the method and setting. Some entries that bind do so weakly or less than the wild type.

Protein sequences, listed by entry. Tags and fused reporters are not part of them.
UniProt P19821: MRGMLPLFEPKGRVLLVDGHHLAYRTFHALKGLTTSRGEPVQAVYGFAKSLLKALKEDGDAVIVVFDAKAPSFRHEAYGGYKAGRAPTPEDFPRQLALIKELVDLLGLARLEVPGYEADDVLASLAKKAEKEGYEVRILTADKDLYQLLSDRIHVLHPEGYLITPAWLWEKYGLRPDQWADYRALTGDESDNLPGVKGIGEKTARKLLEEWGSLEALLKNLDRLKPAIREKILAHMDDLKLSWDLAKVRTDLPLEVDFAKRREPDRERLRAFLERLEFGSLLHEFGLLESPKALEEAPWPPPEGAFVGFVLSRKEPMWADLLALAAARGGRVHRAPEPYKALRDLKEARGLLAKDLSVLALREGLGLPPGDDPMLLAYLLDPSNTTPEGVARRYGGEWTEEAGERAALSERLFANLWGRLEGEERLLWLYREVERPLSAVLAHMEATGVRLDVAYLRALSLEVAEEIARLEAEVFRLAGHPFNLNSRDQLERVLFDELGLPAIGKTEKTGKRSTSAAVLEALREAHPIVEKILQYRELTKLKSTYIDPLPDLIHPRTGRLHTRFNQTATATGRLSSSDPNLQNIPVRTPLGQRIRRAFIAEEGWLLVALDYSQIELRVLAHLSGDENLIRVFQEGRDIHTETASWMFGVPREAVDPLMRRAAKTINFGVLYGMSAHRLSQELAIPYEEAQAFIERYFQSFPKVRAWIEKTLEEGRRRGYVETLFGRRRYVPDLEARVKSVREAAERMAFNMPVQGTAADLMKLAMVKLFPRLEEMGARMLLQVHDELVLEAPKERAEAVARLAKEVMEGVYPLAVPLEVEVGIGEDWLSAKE

What was measured:
[1] = target: Taq DNA polymerase (Thermus aquaticus) (UniProt P19821); experiment: native (non-denaturing) PAGE band shift; 20 uM Taq with 10, 15 or 20 uM blocked 26-bp dsDNA oligomer
[2] = target: Taq DNA polymerase (Thermus aquaticus) (UniProt P19821); experiment: native (non-denaturing) PAGE band shift; EP020:Taq 0.5:1 (2.5 uM:5 uM) and 0.25:1 (2.5 uM:10 uM)
[3] = target: Taq DNA polymerase (Thermus aquaticus) (UniProt P19821); experiment: native (non-denaturing) PAGE band shift; 5 uM Taq with EP020 Type B Reagent at or above the Taq concentration (up to 10:1)
[4] = target: Taq DNA polymerase (Thermus aquaticus) (UniProt P19821); experiment: native (non-denaturing) PAGE of Taq with EP020

Measured: binding

Taq DNA polymerase (from UniProt P19821 1-832) (enzyme)
binds: [1] | [2] | [3] | [4]
